Reference: doi:10.64898/2025.11.30.691381

Molecular target: T1, FLAG-SMN protein (Drosophila) (UniProt Q9VV74)
T1 sequence: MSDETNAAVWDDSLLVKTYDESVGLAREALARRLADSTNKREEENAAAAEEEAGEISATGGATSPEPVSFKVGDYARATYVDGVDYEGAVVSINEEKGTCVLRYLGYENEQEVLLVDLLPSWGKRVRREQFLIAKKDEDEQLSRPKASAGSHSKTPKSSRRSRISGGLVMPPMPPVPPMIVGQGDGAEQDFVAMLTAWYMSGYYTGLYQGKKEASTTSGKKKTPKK
Test: co-IP

binding: binds
Substance: dLarp7 co-precipitated with FLAG-SMN (Drosophila)

Results are given in words; binding and its absence hold for the method and conditions named. Binding seen in cells or lysates may run through a third protein. A result given as binding can be weak or reduced; the word gives no strength. Where a sequence is shown, tags or fusion partners need not be part of it.
